## Assay results

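Luminescence from an EWS-FLI1 target-promoter (NR0B1) reporter, set against a CMV-promoter reporter, two days after silencing single genes in TC32 Ewing sarcoma cells. Each siRNA was applied at 20 nM. A z-score of the log NR0B1-over-CMV signal, less the median of siRNAs with the same seed; more negative means a stronger specific loss of the NR0B1 reporter.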

The strongest results of the screen are mostly left out here. Sequences are the guide (antisense) strand, without overhang.

siRNA,gene,seed-corrected z-score
UCCGGGUCAUUCUUGAUGU,EXOC7,0.4078
UUCAUUUCGGAUAUACACC,FBXW10,0.2539
AUCAUGUUCACAAAGUCUC,AIF1L,0.594
UACUCUAUUUGCCUCCUCU,RRP8,0.1891
AUUAUACCCACAGACAUCG,TFCP2,0.2429
UCUCGAAUCUCUAAAGACC,NPHP3,0.06684
UUUCGGCUUGGGACAUUUC,GIMAP8,1.217
UAAGUAAAUACAUGGAAAC,ZNF428,0.5717
AUAGAUCUGAGAUAACUAC,CATSPERB,-0.1753
UUCGUUUUCAAUGAGGACC,BTBD11,0.99
AAACGCAUAACCUCUAUUG,SYNCRIP,-0.9099
UUACAAGGAACAUCAUUCC,CLEC4D,2.258
UAGGUGACGAUGCUUUCUG,CENPVP3,-0.7271
UUGUUGAUUAGAAACCUUA,ZNF137P,0.4629
AAGAGUGUCAGUUGCUUUC,ATP2C2,-0.5567
UAAUAGGCUUGAAUAGUUU,CEACAM4,-0.081
UAUUCUUCUGCGAUCAAUG,MAP6,0.6427
UACAUUUUCCAGGAAAACU,HIST1H4D,1.684
UCUUUUAUUUCGAAUCUUC,CREB3,0.347
UUGUAGAUCUGGAUUGUCG,OR5AP2,-0.1111
UUUUUGCACUUGAGCCUGG,FAM90A20P,0.8332
AUUGCAUUCGGUGAUAUCC,BRPF3,-1.046
AUGGUACACCUAGCUCUUC,SMPD5,0.771
UAUGUAGUCAUUCUCCACA,SPRY4,-0.8995
UGUUUAGUAAGACUCGAGC,ZNF682,-0.2013
UCAUAAGGUACAACUGGGC,TBPL2,0.4118
AAAAUGUGAAUUGAUUGUC,PKIG,1.033
UCUCCUUUCAUAUUCACAG,NOM1,0.2944
AACUUUCCCAUCUCGGUGC,LRRC71,0.3534
UAUUUCCUGAAUGAUUUGC,EVA1C,-0.4789
UAUGGAUUCUGCGGUGAGC,KLF8,0.01143
UUAUCUGUAAUUUCUCGGG,CFAP206,-1.325
UUAGGGUUGUCCUCUUUGC,THYN1,0.3681
UUUAGCAUUAGCAACAGCC,PLA2G4C,0.2691
UGUUAAACAGACGAAGUUC,USP12,-0.7089
UUAUGCCUAUGUAAACACC,CATSPERB,-0.2009
UAGCGCAUCAGAUUCAGGG,TMEM222,0.02635
AAGGAGUCAAAGUCCUUGC,CLDN22,-0.928
AGUUUCACCAAUGAGACCC,SAXO2,-0.6479
UCAUUGUCAAUCCUGACCU,RIT2,-0.3364
AAGGGUUACAGCUUGUCUG,TRAFD1,0.2707
UUGGUAUGCAAAGUACUCC,RICTOR,1.711
UCACUAUCCGAAUUUCAGG,DLX2,-0.2243
UCGUCUUCCACCAUGGACC,MAL,-0.9538
AUCGUGUGAAGCUCCAUCC,RGL2,-0.9307
UGAGUGACAGAACCAAAGC,KIR3DL3,0.9225
UCUUUAAUACGCUUGUUUC,ZNF468,0.3143
UUCUUGAUCCUCACGUUUC,MRPL23,-0.1745
AAGCUAAUCACAUAGGGCC,OR8H1,1.274
UGCUCGAUAAAUCCUGUAG,FAM83H,0.2387
AAUAGUUAUCUGCAUGUUC,PSMG1,-0.7396
UAGACGAUGGUGCCGAUGC,ULK1,-0.3568
AAUAUACCAAGUAACUCUG,XIRP2,1.244
UUCAUGUCGCUGAUGAUGG,MTSS1,-0.9327
UAACCACCCGAAAAAUUCC,ELF5,0.2978
AUGCAAUCCACAGAAGAGC,TMEM125,-0.2116
UCGUCUUCCCUGUUCAUGC,LRRC42,-0.7519
UUAAGGUCUUGUCAUAAUC,ERLIN1,0.7563
AAUGCUGUGAGCGAUCUGA,LOC642249,1.449
UCUGGGUCCAUGGGUAGAC,HBG1,0.9269
UCUGGAGAGGCGGAAAUGA,PTMS,0.1684
UAGCGCACAGGAUCACUGC,MAGEA8,0.4034
UGGGUUGAAGCGGAGGUUG,LRRC20,0.02005
UAGCUUGAUAAAGUGCACC,FBXO30,0.2513
UGUGAGGUCAGGUCAAGGG,ASB12,-1.325
AAUCGUGUAUCGGAUCUGC,PCDHGB1,0.2443
AGCAGGUUGACCUUAAGCC,GPR31,-0.2705
UCGUCUAUCAAGUCCCUGC,ANXA4,-0.3711

Some entries from above, unchanged:

| siRNA | gene | seed-corrected z-score |
|---|---|---|
| `AAACGCAUAACCUCUAUUG` | SYNCRIP | -0.9099 |
| `UCAUUGUCAAUCCUGACCU` | RIT2 | -0.3364 |
| `UUCAUGUCGCUGAUGAUGG` | MTSS1 | -0.9327 |
| `UGGGUUGAAGCGGAGGUUG` | LRRC20 | 0.02005 |
| `UUAGGGUUGUCCUCUUUGC` | THYN1 | 0.3681 |
| `UUUUUGCACUUGAGCCUGG` | FAM90A20P | 0.8332 |

Data taken from PubChem BioAssay AID1159506, deposited by NCATS (2015).